{"source": "PubChem BioAssay AID1508597 (Cure First, 2020)", "test": "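Knock-downs altering ovarian cancer cell survival with or without PARP inhibitor rucaparib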 (primary screen)", "system": "human ovarian carcinoma lines grown from tumours: OCI-P5x (papillary serous) and OCI-C5x (clear cell)", "reagents": "siRNA pool against human genes, 1.25 pmol siRNA per well", "time to read-out": "72 h or 96 h, depending on the cell culture", "treatment": "rucaparib 20 µM (about IC30) or vehicle, present until read-out", "rucaparib or vehicle": "Rucaparib", "cell line": "OCI-C5x (clear cell)", "measured": "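Luminescent ATP-based viability assay read 72 or 96 h after transfection, depending on culture, given as normalised percent viability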", "scale": "viability, normalised: higher = more viable cells remaining", "rule for the call": "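a well counts as a hit if its normalised viability is under 80 percent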", "meaning of the calls": "active = viability under 80%; inactive = viability 80% or more", "note": "This is a random part of the about 2,100 reagents, in one setting of the screen. 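Calls flag viability under 80% in either arm, not effects specific to rucaparib; the reference for percent is not stated.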 A reagent listed more than once was tested more than once; the source does not tell the runs apart. Not stated in the record: the 100% reference."}
{"target gene": "FOXA1 (forkhead box A1)", "technical replicate": "1", "viability, normalised (%)": 51.2, "Outcome": "active"}
{"target gene": "FOXA1 (forkhead box A1)", "technical replicate": "2", "viability, normalised (%)": 47.8, "Outcome": "active"}
{"target gene": "FOXA1 (forkhead box A1)", "technical replicate": "3", "viability, normalised (%)": 40.8, "Outcome": "active"}
{"target gene": "SIRT5 (sirtuin 5)", "technical replicate": "1", "viability, normalised (%)": 45.1, "Outcome": "active"}
{"target gene": "SIRT5 (sirtuin 5)", "technical replicate": "2", "viability, normalised (%)": 35.6, "Outcome": "active"}
{"target gene": "SIRT5 (sirtuin 5)", "technical replicate": "3", "viability, normalised (%)": 36.2, "Outcome": "active"}
{"target gene": "KDM2B (lysine demethylase 2B)", "technical replicate": "1", "viability, normalised (%)": 48.5, "Outcome": "active"}
{"target gene": "KDM2B (lysine demethylase 2B)", "technical replicate": "2", "viability, normalised (%)": 32.2, "Outcome": "active"}
{"target gene": "KDM2B (lysine demethylase 2B)", "technical replicate": "3", "viability, normalised (%)": 48, "Outcome": "active"}
{"target gene": "PHKG2 (phosphorylase kinase catalytic subunit gamma 2)", "technical replicate": "1", "viability, normalised (%)": 45.2, "Outcome": "active"}
{"target gene": "PHKG2 (phosphorylase kinase catalytic subunit gamma 2)", "technical replicate": "2", "viability, normalised (%)": 43.2, "Outcome": "active"}
{"target gene": "PHKG2 (phosphorylase kinase catalytic subunit gamma 2)", "technical replicate": "3", "viability, normalised (%)": 46.3, "Outcome": "active"}
{"target gene": "SLC17A1", "technical replicate": "1", "viability, normalised (%)": 49.2, "Outcome": "active"}
{"target gene": "SLC17A1", "technical replicate": "2", "viability, normalised (%)": 44.8, "Outcome": "active"}
{"target gene": "SLC17A1", "technical replicate": "3", "viability, normalised (%)": 23.8, "Outcome": "active"}
{"target gene": "HDAC2 (histone deacetylase 2)", "technical replicate": "1", "viability, normalised (%)": 47.7, "Outcome": "active"}
{"target gene": "HDAC2 (histone deacetylase 2)", "technical replicate": "1", "viability, normalised (%)": 29, "Outcome": "active"}
{"target gene": "HDAC2 (histone deacetylase 2)", "technical replicate": "2", "viability, normalised (%)": 71.8, "Outcome": "active"}
{"target gene": "HDAC2 (histone deacetylase 2)", "technical replicate": "2", "viability, normalised (%)": 46.7, "Outcome": "active"}
{"target gene": "HDAC2 (histone deacetylase 2)", "technical replicate": "3", "viability, normalised (%)": 78.7, "Outcome": "active"}
{"target gene": "HDAC2 (histone deacetylase 2)", "technical replicate": "3", "viability, normalised (%)": 44.4, "Outcome": "active"}
{"target gene": "CEBPG (CCAAT enhancer binding protein gamma)", "technical replicate": "1", "viability, normalised (%)": 50.8, "Outcome": "active"}
{"target gene": "CEBPG (CCAAT enhancer binding protein gamma)", "technical replicate": "2", "viability, normalised (%)": 47.9, "Outcome": "active"}
{"target gene": "CEBPG (CCAAT enhancer binding protein gamma)", "technical replicate": "3", "viability, normalised (%)": 39.3, "Outcome": "active"}
{"target gene": "ZC3HAV1 (zinc finger CCCH-type containing, antiviral 1)", "technical replicate": "1", "viability, normalised (%)": 81.6, "Outcome": "inactive"}
{"target gene": "ZC3HAV1 (zinc finger CCCH-type containing, antiviral 1)", "technical replicate": "2", "viability, normalised (%)": 72, "Outcome": "active"}
{"target gene": "ZC3HAV1 (zinc finger CCCH-type containing, antiviral 1)", "technical replicate": "3", "viability, normalised (%)": 57.5, "Outcome": "active"}
{"target gene": "CCNE1 (cyclin E1)", "technical replicate": "1", "viability, normalised (%)": 57.9, "Outcome": "active"}
{"target gene": "CCNE1 (cyclin E1)", "technical replicate": "2", "viability, normalised (%)": 75.5, "Outcome": "active"}
{"target gene": "CCNE1 (cyclin E1)", "technical replicate": "3", "viability, normalised (%)": 73.6, "Outcome": "active"}
{"target gene": "KAT5 (lysine acetyltransferase 5)", "technical replicate": "1", "viability, normalised (%)": 42.9, "Outcome": "active"}
{"target gene": "KAT5 (lysine acetyltransferase 5)", "technical replicate": "2", "viability, normalised (%)": 32.1, "Outcome": "active"}
{"target gene": "KAT5 (lysine acetyltransferase 5)", "technical replicate": "3", "viability, normalised (%)": 48.3, "Outcome": "active"}

Reformatted: 5 of the entries above
target gene,technical replicate,"viability, normalised (%)",Outcome
SLC17A1,3,23.8,active
HDAC2 (histone deacetylase 2),1,47.7,active
HDAC2 (histone deacetylase 2),1,29,active
HDAC2 (histone deacetylase 2),2,71.8,active
HDAC2 (histone deacetylase 2),2,46.7,active
